In patent publication US6696495B2, “Treatment of disorders secondary to organic impairments” (Snowden Pharmaceuticals, LLC, priority 1998, dated 2004):
For at least one compound, name, drawing or mass did not settle the structure. Some entries repeat one wording, which the source may state once for all of them.

Key:
[1] = test system: Severe Post-Traumatic Stress Reaction; settings: human, in vivo
Procedure: Finally, this patient was taken off of fluoxetine 20 mg when sibutramine treatment was initiated.

[2] = test system: Tourette's Disease Tics, Violence, and ADHD; assay: Case history 8, Sibutramine Patient No. 47; assay type: in vivo, human
[3] = test system: Tourette's Tics, Asocial Behavior, and Relief of Hyposexuality; settings: human, in vivo
[4] = test system: Sexual Function, ADD, and Rage Outbursts; assay: Case history 3, Sibutramine Patient No. 100; settings: human, in vivo
[5] = test system: Severe Atypical Psychosis; assay: Case history 1, Sibutramine Patient No. 97; settings: human, in vivo
[6] = test system: Sexual Gender Choice Change; assay: Case history 7, Sibutramine Patient No. 99; settings: human, in vivo
[7] = test system: Asocial Behavior, Violence, and Hyposexuality; assay: Case history 10, Sibutramine Patient No. 54; settings: human, in vivo
[8] = over six years before sibutramine

In the case of `CN1CCN(C2=Nc3cc(Cl)ccc3Nc3ccccc32)CC1` [Clozapine], the “response of PTSD symptoms to other medications” value [1] is reported as “unsuccessful”.

For `CC(C)C[C@H]1C(=O)N2CCC[C@H]2[C@]2(O)O[C@](NC(=O)[C@@H]3C=C4c5cccc6[nH]c(Br)c(c56)C[C@H]4N(C)C3)(C(C)C)C(=O)N12` [bromocriptine], the “response to other medications” value [2, 8] was “without any good results”.

`Cc1cc2c(s1)Nc1ccccc1N=C2N1CCN(C)CC1` [olanzapine] was tested, and the “response to other medications” value [3] was “without success”, the “response to other medications” value [4] was “not helpful” and the “response of psychosis symptoms to other medications” value [5] was “without success”. The “response to other medications” value [6] was “refractory”, the “response to other medications” value [7] was “without any changes in their speech or mode of communication” and the “response to other medications” value ([2]; human, in vivo) was “without any good results”.

With `CCC1(c2ccccc2)C(=O)NC(=O)NC1=O` [phenobarbital] the “response to other medications” value [2, 8] was “without any good results”.
